± gives the standard deviation. Only a part is listed here, and it is no random draw. Many of these values have a large error.

This is an account of results in the supplement of paper PMC10338343.

For this test, the system named is EfPiwi piRISC loaded with piRNA #1 (26 nt). In words: pre-steady-state target cleavage rate (min^-1); guide: piRNA #1 5'p-UGAGGUAGUAGGUUGUAUAGUAUCCA; MIWI and MILI are mouse PIWI proteins and EfPiwi is from a freshwater sponge; tags in brackets are library labels; higher = faster piRNA-guided slicing of the target. To be noted: auxiliary factor: 500 nM Ephydatia muelleri Gtsf1. In a few lines: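 Cleave-'n-Seq measured uncleaved targets by sequencing after a transcribed, DNA-blocked target RNA library […] was mixed with 1 nM active affinity-purified piRISC holding one synthetic guide, with or without 500 nM GTSF1 partner protein, at 33 °C in HEPES–potassium acetate buffer for 0–8 or 0–960 min. Counts were normalised to depth and to weakly complementary targets, three trials were pooled, and k3 was capped at 0.0001 min^-1. A burst-and-steady-state fit gave the pre-steady-state cleavage rate.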
For the sequence GGAGACGAUACUAUACAACCUACUACCAGA, the “pre-steady-state target cleavage rate” value came to 0.00503 ± 0.0015.
For GGAGACGAUACUAUACAAGCUACUACCUGA, the “pre-steady-state target cleavage rate” value is 0.00333 ± 0.0015.
GGAGACCUAACUAUACAACCUACUACUCA: the “pre-steady-state target cleavage rate” value is 0.0025 ± 0.0044.
As for GGAGACCAUACAAUACAACCUUCUACCUCA, the “pre-steady-state target cleavage rate” value worked out at 0.00301 ± 0.0031.
The same measure for GGAGACCUAUGUAUACAACCUACUAGCUCA: 0.00193 ± 0.0043.
For the sequence GGAGACCUUACUAUACAACCUACUACCUAA, the “pre-steady-state target cleavage rate” value worked out at 0.00756 ± 0.0045.
The same measure for GGAGUGGAUACUUAACAACCUACUACCUCA: 0.0027 ± 0.0043.
For GGAGACCUUACUAUUCAACCUACUAGCUCA, the “pre-steady-state target cleavage rate” value was 0.000437 ± 0.0075.
On to GGAGACCUAUGAUAUGUUCCUACUACCAGA, for which the “pre-steady-state target cleavage rate” value came to 0.000155 ± 0.013.
Take GGAGACCUAUGAUAUCAACGUAGUACCUCA: the “pre-steady-state target cleavage rate” value is 0.00022 ± 0.013.
With GGAGACCUAAGUAUACAACCUACUACCACA, the “pre-steady-state target cleavage rate” value was found to be 0.00204 ± 0.0041.
In the case of GGAGAGGAUACUAUACAACCUACUACCGCA, the “pre-steady-state target cleavage rate” value came out at 0.00593 ± 0.0021.
Consider GGAGACCUAUGUAUAGAACCUACUACCUCA, for which the “pre-steady-state target cleavage rate” value stood at 0.00113 ± 0.0039.
Turning to GGAGACCUAUGUAUACAAGCUACUACCUCA, the “pre-steady-state target cleavage rate” value was 0.00216 ± 0.0044.
For the sequence GGAGAGCAUACUAUAGAACCUACUACCUCA, the “pre-steady-state target cleavage rate” value turned out to be 0.00245 ± 0.0032.
For GGAGAGGUUACUAUACAUCCUACUACCUCA, the “pre-steady-state target cleavage rate” value amounted to 0.00567 ± 0.0029.
With GGAGAGGAUACUACACAACCUACUACCUCA, the “pre-steady-state target cleavage rate” value turned out to be 0.00871 ± 0.004.
Consider GGAGUGGAUACUAUACAACCUACUGCCUCA, for which the “pre-steady-state target cleavage rate” value came to 0.00835 ± 0.0028.
As for GGAGACCUAUCUUUACAACGUACUACCUCA, the figure is 0.0015 ± 0.0052.
As for GGAGACCUUACUAUACAACCAACUACGUCA, the “pre-steady-state target cleavage rate” value was 0.00103 ± 0.0039.
The same measure for GGAGACCAUACUAUACAACCUUCUACCUCA: 0.00625 ± 0.0028; for GGAGACCUAUGUAUACAGCCUACUACCUCA: 0.00122 ± 0.0058; for GGAGACCUUACUAUACAACCUACUACCUGCA: 0.00419 ± 0.0031.
In the case of GGAGAGGAUACUAAACAACCUACUACCACA, the “pre-steady-state target cleavage rate” value was determined as 0.00277 ± 0.002.
